Experimental data as given in US20200270309A1, “MALEIMIDE GROUP-MODIFIED ANGIOGENESIS INHIBITOR HM-1 AND USE THEREOF” (NANJING ANJI BIOLOGICAL TECHNOLOGY CO., LTD, priority 2017, published 2020).
Not every detail of the peptide structures is certain; ends, links or a residue may be inferred. At least one compound was matched to its structure with a doubt left. Peptide text beside a SMILES is read from it. * marks the point of attachment. Hexanoyl(6-maleimido) = O=C1C=CC(=O)N1CCCCCC(=O)*; Propanoyl(3-maleimido) = O=C1C=CC(=O)N1CCC(=O)*

Experiments:
Assay type in all cases: cell-based, human
[1] = tested on: HUVECs; assay: Transwell migration inhibition on HUVECs; details: 24 h
[2] = tested on: Head and neck cancers tumor cell line; assay: MTT proliferation inhibition, head and neck cancers; details: tumor cell line source: Head and neck cancers, 48 h
[3] = tested on: Cervical cancer tumor cell line; assay: MTT proliferation inhibition, cervical cancer; details: tumor cell line source: Cervical cancer, 48 h
[4] = tested on: Ovarian cancer tumor cell line; assay: MTT proliferation inhibition, ovarian cancer; details: tumor cell line source: Ovarian cancer, 48 h
[5] = tested on: Lung cancer tumor cell line; assay: MTT proliferation inhibition, lung cancer; details: tumor cell line source: Lung cancer, 48 h
[6] = tested on: Uterine cancer tumor cell line; assay: MTT proliferation inhibition, uterine cancer; details: tumor cell line source: Uterine cancer, 48 h
[7] = tested on: Pancreatic cancer tumor cell line; assay: MTT proliferation inhibition, pancreatic cancer; details: tumor cell line source: Pancreatic cancer, 48 h
[8] = tested on: Hemangioma tumor cell line; assay: MTT proliferation inhibition, hemangioma; details: tumor cell line source: Hemangioma, 48 h
[9] = tested on: Stomach cancer tumor cell line; assay: MTT proliferation inhibition, stomach cancer; details: tumor cell line source: Stomach cancer, 48 h
[10] = tested on: Sarcoma tumor cell line; assay: MTT proliferation inhibition, sarcoma; details: tumor cell line source: Sarcoma, 48 h
[11] = tested on: Kidney cancer tumor cell line; assay: MTT proliferation inhibition, kidney cancer; details: tumor cell line source: Kidney cancer, 48 h
[12] = tested on: Breast cancer tumor cell line; assay: MTT proliferation inhibition, breast cancer; details: tumor cell line source: Breast cancer, 48 h
[13] = tested on: Melanoma tumor cell line; assay: MTT proliferation inhibition, melanoma; details: tumor cell line source: Melanoma, 48 h
[14] = tested on: Esophageal cancer tumor cell line; assay: MTT proliferation inhibition, esophageal cancer; details: tumor cell line source: Esophageal cancer, 48 h
[15] = tested on: Thyroid cancer tumor cell line; assay: MTT proliferation inhibition, thyroid cancer; details: tumor cell line source: Thyroid cancer, 48 h
[16] = tested on: Bladder cancer tumor cell line; assay: MTT proliferation inhibition, bladder cancer; details: tumor cell line source: Bladder cancer, 48 h
[17] = tested on: Prostate cancer tumor cell line; assay: MTT proliferation inhibition, prostate cancer; details: tumor cell line source: Prostate cancer, 48 h
[18] = tested on: Liver cancer tumor cell line; assay: MTT proliferation inhibition, liver cancer; details: tumor cell line source: Liver cancer, 48 h
[19] = tested on: Brain tumor cell line; assay: MTT proliferation inhibition, brain tumor; details: tumor cell line source: Brain tumor, 48 h
[20] = tested on: Colorectal cancer tumor cell line; assay: MTT proliferation inhibition, colorectal cancer; details: tumor cell line source: Colorectal cancer, 48 h

C[C@H](NC(=O)[C@H](CCCNC(=N)N)NC(=O)[C@H](CC(=O)O)NC(=O)[C@H](CCC(=O)O)NC(=O)CNC(=O)[C@H](CCCNC(=N)N)NC(=O)CCN1C(=O)C=CC1=O)C(=O)NCC(=O)NCC(=O)NCC(=O)NCC(=O)N[C@@H](CCCNC(=N)N)C(=O)NCC(=O)N[C@@H](CC(=O)O)C(=O)O [P5] ({Propanoyl(3-maleimido)}-RGEDRAGGGGRGD-OH; C-terminus assumed) was tested, and the “Cell migration number (Mean ± SD)” value ([1]; dose 0.05 μM) was 568.79 ± 48.49, the “Inhibition rate (migration)” value ([1]; dose 0.05 μM) was 46.38% and the “Cell migration number (Mean ± SD)” value ([1]; dose 0.1 μM) was 476.01 ± 54.57. For the same compound, the “Inhibition rate (migration)” value ([1]; dose 0.1 μM) was 55.12%, the “Cell migration number (Mean ± SD)” value ([1]; dose 0.2 μM) was 530.22 ± 56.20 and the “Inhibition rate (migration)” value ([1]; dose 0.2 μM) was 50.01%. The PIR [2] was 45.96 ± 13.95%, the PIR [3] was 50.07 ± 13.34% and the PIR [4] was 54.41 ± 15.45%. For the same compound, the PIR [5] was 46.99 ± 12.56%, the PIR [6] was 54.75 ± 12.45% and the PIR [7] was 54.16 ± 11.51%. It also gave a PIR [8] of 55.17 ± 13.65%, a PIR [9] of 47.78 ± 14.89% and a PIR [10] of 46.94 ± 13.83%. For the same compound, the PIR [11] was 50.38 ± 12.35%, the PIR [12] was 54.73 ± 11.81% and the PIR [13] was 63.66 ± 16.06%. It also gave a PIR [14] of 44.34 ± 10.55%, a PIR [15] of 44.99 ± 16.02% and a PIR [16] of 42.68 ± 16.85%. For the same compound, the PIR [17] was 49.83 ± 11.08%, the PIR [18] was 50.79 ± 13.95% and the PIR [19] was 46.07 ± 18.12%. For the same compound, the PIR [20] was 46.77 ± 15.91%.

In the case of C[C@H](NC(=O)[C@H](CCCNC(=N)N)NC(=O)[C@H](CC(=O)O)NC(=O)[C@H](CCC(=O)O)NC(=O)CNC(=O)[C@H](CCCNC(=N)N)NC(=O)CCCCCN1C(=O)C=CC1=O)C(=O)NCC(=O)NCC(=O)NCC(=O)NCC(=O)N[C@@H](CCCNC(=N)N)C(=O)NCC(=O)N[C@@H](CC(=O)O)C(=O)O [P6] ({Hexanoyl(6-maleimido)}-RGEDRAGGGGRGD-OH; C-terminus assumed), the “Cell migration number (Mean ± SD)” value ([1]; dose 0.05 μM) is reported as 454.57 ± 50.52, the “Inhibition rate (migration)” value ([1]; dose 0.05 μM) is reported as 57.15% and the “Cell migration number (Mean ± SD)” value ([1]; dose 0.1 μM) is reported as 510.26 ± 56.98. The “Inhibition rate (migration)” value ([1]; dose 0.1 μM) was 51.90%, the “Cell migration number (Mean ± SD)” value ([1]; dose 0.2 μM) was 590.16 ± 48.21 and the “Inhibition rate (migration)” value ([1]; dose 0.2 μM) was 44.36%. For the same compound, the PIR [2] was 57.32 ± 16.75%, the PIR [3] was 60.67 ± 11.23% and the PIR [4] was 48.86 ± 16.61%. It also gave a PIR [5] of 52.02 ± 14.84%, a PIR [6] of 57.74 ± 10.61% and a PIR [7] of 56.09 ± 16.01%. It also gave a PIR [8] of 55.84 ± 10.17%, a PIR [9] of 61.74 ± 10.29% and a PIR [10] of 51.45 ± 12.82%. It also gave a PIR [11] of 45.24 ± 13.11%, a PIR [12] of 58.25 ± 14.52% and a PIR [13] of 48.19 ± 13.69%. It also gave a PIR [14] of 63.13 ± 10.17%, a PIR [15] of 42.43 ± 17.62% and a PIR [16] of 62.75 ± 13.88%. It also gave a PIR [17] of 62.66 ± 15.13%, a PIR [18] of 48.96 ± 15.15% and a PIR [19] of 42.44 ± 14.97%. It also gave a PIR [20] of 51.82 ± 12.71%.
